Data on 31 targets can be found in the supplement of paper PMC12819154, “High-throughput peptide-centric local stability assay extends protein–ligand identification to membrane proteins, tissues and bacteria” (Nature Structural & Molecular Biology, 2025).

Chains of the proteins cited; added tags and fusions are not shown. Lines headed by an entry give the natural chain unless they say otherwise; changes in a name come on top.
UniProt Q8BGW1, whole entry: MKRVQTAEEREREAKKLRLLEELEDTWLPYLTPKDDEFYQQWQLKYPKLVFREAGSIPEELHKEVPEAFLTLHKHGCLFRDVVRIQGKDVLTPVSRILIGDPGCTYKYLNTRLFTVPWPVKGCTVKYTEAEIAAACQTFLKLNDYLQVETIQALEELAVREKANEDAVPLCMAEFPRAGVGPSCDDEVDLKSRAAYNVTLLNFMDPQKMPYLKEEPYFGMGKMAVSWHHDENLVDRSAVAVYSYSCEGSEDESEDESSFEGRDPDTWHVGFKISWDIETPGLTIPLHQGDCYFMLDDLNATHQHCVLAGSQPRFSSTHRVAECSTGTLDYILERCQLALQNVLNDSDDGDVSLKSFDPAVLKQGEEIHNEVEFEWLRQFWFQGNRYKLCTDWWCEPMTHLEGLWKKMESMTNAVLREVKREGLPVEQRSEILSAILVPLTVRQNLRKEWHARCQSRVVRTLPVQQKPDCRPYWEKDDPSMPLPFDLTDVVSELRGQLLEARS
UniProt Q8BG18: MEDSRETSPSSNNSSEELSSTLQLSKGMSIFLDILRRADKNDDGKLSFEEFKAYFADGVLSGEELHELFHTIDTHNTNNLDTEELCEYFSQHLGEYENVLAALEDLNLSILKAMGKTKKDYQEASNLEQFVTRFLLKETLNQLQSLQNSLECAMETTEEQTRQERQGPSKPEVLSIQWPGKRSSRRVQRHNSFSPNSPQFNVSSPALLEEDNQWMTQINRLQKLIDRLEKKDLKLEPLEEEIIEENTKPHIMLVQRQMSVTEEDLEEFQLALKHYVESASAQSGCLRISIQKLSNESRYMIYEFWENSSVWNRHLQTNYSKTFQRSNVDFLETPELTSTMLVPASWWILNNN
UniProt Q811U4: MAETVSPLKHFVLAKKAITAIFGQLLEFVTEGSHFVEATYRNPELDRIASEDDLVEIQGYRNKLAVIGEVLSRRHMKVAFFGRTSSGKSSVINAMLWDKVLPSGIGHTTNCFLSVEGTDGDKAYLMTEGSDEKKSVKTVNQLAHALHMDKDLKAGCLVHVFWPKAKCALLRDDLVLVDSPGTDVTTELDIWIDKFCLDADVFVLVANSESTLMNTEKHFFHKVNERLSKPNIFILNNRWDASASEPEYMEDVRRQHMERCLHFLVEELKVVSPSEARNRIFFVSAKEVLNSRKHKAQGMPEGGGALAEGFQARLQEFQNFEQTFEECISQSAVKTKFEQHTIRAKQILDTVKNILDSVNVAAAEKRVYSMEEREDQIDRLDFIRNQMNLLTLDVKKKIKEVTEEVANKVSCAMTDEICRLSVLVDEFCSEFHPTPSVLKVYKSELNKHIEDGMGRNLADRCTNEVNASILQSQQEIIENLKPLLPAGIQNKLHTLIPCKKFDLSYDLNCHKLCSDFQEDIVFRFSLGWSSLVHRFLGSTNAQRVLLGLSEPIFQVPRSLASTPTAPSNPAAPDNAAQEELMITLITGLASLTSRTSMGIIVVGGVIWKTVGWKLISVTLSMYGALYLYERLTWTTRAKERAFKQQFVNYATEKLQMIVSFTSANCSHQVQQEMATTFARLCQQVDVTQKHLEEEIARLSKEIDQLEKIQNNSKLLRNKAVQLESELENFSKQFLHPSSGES
UniProt Q811D2: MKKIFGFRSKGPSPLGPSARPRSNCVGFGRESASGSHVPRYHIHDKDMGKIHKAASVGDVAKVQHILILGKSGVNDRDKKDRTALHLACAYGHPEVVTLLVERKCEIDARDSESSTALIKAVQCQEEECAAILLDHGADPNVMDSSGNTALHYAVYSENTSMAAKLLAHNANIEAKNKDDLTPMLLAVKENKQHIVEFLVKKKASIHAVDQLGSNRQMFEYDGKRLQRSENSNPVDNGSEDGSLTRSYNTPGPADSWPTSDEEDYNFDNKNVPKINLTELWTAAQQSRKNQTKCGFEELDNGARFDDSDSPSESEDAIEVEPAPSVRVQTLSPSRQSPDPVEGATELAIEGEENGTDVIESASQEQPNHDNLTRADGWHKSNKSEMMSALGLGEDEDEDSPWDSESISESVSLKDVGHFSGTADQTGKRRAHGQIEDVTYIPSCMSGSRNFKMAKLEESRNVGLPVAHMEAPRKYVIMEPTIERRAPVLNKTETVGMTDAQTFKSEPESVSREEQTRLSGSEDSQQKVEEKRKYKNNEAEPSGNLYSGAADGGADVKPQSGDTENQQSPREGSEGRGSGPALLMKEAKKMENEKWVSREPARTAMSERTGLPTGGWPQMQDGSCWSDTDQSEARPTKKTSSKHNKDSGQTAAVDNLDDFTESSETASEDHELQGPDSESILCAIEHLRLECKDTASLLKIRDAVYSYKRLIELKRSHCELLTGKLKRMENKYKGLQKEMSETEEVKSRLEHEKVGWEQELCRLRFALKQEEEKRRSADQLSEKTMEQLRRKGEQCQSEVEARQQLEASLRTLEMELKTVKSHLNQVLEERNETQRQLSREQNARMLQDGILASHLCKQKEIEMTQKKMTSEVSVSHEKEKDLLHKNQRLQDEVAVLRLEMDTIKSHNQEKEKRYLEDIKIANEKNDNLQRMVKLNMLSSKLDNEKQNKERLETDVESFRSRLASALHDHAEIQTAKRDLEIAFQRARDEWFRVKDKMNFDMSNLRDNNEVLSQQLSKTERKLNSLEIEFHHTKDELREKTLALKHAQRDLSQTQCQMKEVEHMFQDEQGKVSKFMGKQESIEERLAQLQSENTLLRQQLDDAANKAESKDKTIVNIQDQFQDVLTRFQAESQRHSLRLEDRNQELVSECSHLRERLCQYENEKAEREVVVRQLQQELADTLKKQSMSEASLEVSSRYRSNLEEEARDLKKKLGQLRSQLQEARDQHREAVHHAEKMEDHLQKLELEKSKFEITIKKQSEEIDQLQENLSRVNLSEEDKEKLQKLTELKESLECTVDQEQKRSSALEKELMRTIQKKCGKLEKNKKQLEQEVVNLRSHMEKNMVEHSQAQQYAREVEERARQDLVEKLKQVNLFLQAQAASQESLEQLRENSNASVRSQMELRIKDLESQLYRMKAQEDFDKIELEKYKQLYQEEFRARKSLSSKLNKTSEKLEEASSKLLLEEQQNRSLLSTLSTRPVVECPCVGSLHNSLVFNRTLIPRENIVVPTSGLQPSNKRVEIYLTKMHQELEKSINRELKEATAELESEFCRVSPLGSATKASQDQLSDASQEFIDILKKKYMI
UniProt Q8BGD8: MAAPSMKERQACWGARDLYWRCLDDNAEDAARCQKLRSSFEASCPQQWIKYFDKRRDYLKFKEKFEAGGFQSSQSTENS
UniProt Q8BHG9: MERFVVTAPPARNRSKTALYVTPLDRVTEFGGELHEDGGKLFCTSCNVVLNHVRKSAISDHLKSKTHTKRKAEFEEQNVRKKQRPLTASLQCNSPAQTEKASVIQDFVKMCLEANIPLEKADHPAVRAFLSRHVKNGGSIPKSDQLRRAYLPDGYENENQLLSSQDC
UniProt Q8BGX2: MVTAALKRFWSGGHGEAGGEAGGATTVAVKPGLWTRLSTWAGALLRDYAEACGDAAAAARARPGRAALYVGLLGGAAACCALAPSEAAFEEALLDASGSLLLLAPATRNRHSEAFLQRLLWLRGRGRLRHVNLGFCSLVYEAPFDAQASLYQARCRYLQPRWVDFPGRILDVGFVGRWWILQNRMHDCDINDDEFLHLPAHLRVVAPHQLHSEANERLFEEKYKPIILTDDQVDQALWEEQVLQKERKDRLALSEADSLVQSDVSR
UniProt Q80XC3: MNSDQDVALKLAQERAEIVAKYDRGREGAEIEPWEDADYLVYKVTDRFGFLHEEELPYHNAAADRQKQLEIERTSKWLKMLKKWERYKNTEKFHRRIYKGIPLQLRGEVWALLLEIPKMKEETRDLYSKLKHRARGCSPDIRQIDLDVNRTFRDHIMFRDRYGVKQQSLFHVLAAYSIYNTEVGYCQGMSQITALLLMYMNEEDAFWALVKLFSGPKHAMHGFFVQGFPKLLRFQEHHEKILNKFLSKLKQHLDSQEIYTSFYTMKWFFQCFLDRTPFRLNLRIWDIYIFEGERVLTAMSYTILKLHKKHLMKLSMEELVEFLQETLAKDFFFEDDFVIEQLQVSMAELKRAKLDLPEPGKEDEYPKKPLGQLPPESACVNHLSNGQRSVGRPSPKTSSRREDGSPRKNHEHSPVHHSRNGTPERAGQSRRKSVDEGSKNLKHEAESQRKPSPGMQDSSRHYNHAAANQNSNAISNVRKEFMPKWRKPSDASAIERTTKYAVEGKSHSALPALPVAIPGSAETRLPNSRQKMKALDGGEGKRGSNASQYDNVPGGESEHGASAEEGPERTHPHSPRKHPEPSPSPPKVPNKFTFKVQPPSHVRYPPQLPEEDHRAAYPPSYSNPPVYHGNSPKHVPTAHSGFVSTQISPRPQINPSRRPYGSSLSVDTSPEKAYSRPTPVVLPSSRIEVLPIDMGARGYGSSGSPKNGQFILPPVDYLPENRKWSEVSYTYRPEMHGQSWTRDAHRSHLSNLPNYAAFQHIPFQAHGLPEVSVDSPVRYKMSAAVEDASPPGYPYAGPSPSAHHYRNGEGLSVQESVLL
UniProt Q8BFX1: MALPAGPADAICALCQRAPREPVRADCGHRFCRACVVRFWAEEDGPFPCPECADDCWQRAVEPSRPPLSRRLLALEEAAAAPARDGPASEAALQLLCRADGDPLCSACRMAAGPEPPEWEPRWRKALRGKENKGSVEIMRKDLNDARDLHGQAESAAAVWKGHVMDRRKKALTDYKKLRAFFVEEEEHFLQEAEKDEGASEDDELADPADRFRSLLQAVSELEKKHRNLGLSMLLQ
UniProt Q812E0: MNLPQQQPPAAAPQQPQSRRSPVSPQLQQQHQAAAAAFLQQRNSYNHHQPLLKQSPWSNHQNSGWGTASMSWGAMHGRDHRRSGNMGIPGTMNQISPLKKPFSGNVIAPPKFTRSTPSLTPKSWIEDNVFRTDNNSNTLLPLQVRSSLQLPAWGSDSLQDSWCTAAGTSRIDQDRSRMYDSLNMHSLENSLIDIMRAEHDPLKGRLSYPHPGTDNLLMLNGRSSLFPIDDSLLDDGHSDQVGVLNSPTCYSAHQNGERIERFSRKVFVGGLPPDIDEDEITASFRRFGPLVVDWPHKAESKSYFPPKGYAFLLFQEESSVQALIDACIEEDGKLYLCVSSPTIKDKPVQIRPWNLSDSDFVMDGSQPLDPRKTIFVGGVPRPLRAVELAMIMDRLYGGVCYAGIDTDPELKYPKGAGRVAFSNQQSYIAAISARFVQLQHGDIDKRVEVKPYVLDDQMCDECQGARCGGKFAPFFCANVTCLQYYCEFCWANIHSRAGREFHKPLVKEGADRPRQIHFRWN
UniProt Q8BHN7: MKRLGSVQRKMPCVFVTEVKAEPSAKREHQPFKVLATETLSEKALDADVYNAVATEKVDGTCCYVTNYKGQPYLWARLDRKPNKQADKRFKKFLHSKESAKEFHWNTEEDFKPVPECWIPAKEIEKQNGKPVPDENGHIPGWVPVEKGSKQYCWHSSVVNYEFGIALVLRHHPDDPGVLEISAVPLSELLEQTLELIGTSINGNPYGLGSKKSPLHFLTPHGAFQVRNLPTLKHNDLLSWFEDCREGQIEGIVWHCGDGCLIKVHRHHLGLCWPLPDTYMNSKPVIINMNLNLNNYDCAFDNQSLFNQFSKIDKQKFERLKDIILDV
UniProt Q8BH02: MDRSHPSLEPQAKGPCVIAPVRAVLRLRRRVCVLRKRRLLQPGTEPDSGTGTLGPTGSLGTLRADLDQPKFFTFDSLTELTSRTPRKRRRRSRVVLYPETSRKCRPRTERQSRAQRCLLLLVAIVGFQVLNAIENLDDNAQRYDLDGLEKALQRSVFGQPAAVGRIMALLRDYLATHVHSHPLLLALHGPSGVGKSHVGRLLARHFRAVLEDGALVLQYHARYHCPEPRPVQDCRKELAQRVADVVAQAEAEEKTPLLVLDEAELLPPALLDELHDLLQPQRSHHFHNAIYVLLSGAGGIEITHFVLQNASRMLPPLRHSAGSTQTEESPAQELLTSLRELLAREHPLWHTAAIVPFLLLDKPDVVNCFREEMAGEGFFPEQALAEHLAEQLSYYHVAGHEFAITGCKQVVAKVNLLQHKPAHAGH
UniProt Q8BG71: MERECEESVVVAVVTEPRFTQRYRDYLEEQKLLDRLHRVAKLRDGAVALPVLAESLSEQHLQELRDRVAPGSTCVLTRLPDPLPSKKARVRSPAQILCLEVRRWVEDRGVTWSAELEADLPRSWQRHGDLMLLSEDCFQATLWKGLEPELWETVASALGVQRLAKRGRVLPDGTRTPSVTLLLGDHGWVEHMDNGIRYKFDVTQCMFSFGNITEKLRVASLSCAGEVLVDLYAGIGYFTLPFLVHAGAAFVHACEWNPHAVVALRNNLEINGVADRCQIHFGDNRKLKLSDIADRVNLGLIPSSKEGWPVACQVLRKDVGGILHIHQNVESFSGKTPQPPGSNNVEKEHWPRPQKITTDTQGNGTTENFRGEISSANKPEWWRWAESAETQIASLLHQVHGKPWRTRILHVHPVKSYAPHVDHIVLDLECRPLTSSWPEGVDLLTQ

The list shows a part of the results. Most entries show no effect beyond the scatter of the controls.

Compound in the assay: CN[C@@H]1C[C@H]2O[C@@](C)([C@@H]1OC)n1c3ccccc3c3c4c(c5c6ccccc6n2c5c31)C(=O)NC4 [staurosporine]
Description: log2 fold change of tryptic peptide abundance, ligand vs vehicle (limited proteolysis) (log2 ratio); higher = more trypsin-susceptible (destabilized). The following applies: ligand concentration: 20 uM; sample: mouse liver crude lysate; replicate design: treated separately.
As to “UniProt Q80YS6 (peptide sequence: ICAFLLR, peptide start residue: 155)”, the log2 fold change worked out at 0.0951.

As to “UniProt Q8BGW1 (peptide sequence: LFTVPWPVKGCTVK, peptide start residue: 113)”, the log2 fold change is -0.717.

For “UniProt Q8BG18 (peptide sequence: HYVESASAQSGCLR, peptide start residue: 274)”, the log2 fold change worked out at 0.0768.

Take “UniProt Q811U4 (peptide sequence: VYKSELNKHIEDGMGR, peptide start residue: 440)”: the log2 fold change was -1.02.

As to “UniProt Q811D2 (peptide sequence: GSGPALLMK, peptide start residue: 577)”, the log2 fold change was -0.484.

In the case of “UniProt Q80Y98 (peptide sequence: GDASTLEEDLKK, peptide start residue: 385)”, the log2 fold change is -0.507.

As to “UniProt Q8BGD8 (peptide sequence: ERQACWGAR, peptide start residue: 8)”, the log2 fold change is 0.15.

Take “UniProt Q8BFR6 (peptide sequence: MHADGDKSLPQTER, peptide start residue: 150)”: the log2 fold change is -0.675.

“UniProt Q8BGC0 (peptide sequence: EGGSDGDHPER, peptide start residue: 452)”: the log2 fold change was -0.357.

Turning to “UniProt Q8BHG9 (peptide sequence: FVVTAPPAR, peptide start residue: 4)”, the log2 fold change came to 0.21.

As to “UniProt Q8BGX2 (peptide sequence: MHDCDINDDEFLHLPAHLR, peptide start residue: 185)”, the log2 fold change was -0.332.

For “UniProt Q80XC3 (peptide sequence: FGFLHEEELPYHNAAADR, peptide start residue: 48)”, the log2 fold change is -0.584.

Turning to “UniProt Q80Z38 (peptide sequence: VYGTIKPAFNQNPVVAK, peptide start residue: 541)”, the log2 fold change is 0.345.

Consider “UniProt Q811J3 (peptide sequence: GQTTCRGSCDSGELSR, peptide start residue: 171)”, for which the log2 fold change is 0.18.

Take “UniProt Q8BFX1 (peptide sequence: ADGDPLCSACR, peptide start residue: 99)”: the log2 fold change amounted to 0.0995.

For the target “UniProt Q812E0 (peptide sequence: FVQLQHGDIDKR, peptide start residue: 435)”, the log2 fold change is -0.48.

With “UniProt Q8BHC0 (peptide sequence: TIKNPEEAK, peptide start residue: 296)”, the log2 fold change was -0.164.

For “UniProt Q8BGE6 (peptide sequence: KYSIFTEKDEILSDVASR, peptide start residue: 32)”, the log2 fold change was -0.356.

Turning to “UniProt Q80YA3 (peptide sequence: HLLDELYITK, peptide start residue: 225)”, the log2 fold change is -0.136.

As for “UniProt Q8BGT7 (peptide sequence: DLQEVIELTK, peptide start residue: 38)”, the log2 fold change came out at 0.234.

Regarding “UniProt Q8BH15 (peptide sequence: GIVQSIVGQGYHR, peptide start residue: 419)”, the log2 fold change was -0.405.

Turning to “UniProt Q8BHD8 (peptide sequence: YYLLYYR, peptide start residue: 351)”, the log2 fold change was -0.415.

In the case of “UniProt Q80WQ2 (peptide sequence: LAADPDPNVK, peptide start residue: 142)”, the log2 fold change was -0.232.

For “UniProt Q810J8 (peptide sequence: VLAISDLVIYR, peptide start residue: 256)”, the log2 fold change is 0.308.

In the case of “UniProt Q80YR5 (peptide sequence: DRGHYQEHVIDRR, peptide start residue: 814)”, the log2 fold change came out at 0.456.

In the case of “UniProt Q80XI6 (peptide sequence: TVSPPPGISR, peptide start residue: 741)”, the log2 fold change was determined as 0.584.

In the case of “UniProt Q80VP1 (peptide sequence: NIVHNYSEAEIK, peptide start residue: 12)”, the log2 fold change was -0.22.

Take “UniProt Q8BHN7 (peptide sequence: GQPYLWAR, peptide start residue: 70)”: the log2 fold change was -0.27.

Regarding “UniProt Q8BH02 (peptide sequence: GPCVIAPVR, peptide start residue: 14)”, the log2 fold change was found to be 0.118.

For the target “UniProt Q80WW9 (peptide sequence: AAAADGEPLHNEEER, peptide start residue: 28)”, the log2 fold change came out at 0.388.

Turning to “UniProt Q8BG71 (peptide sequence: ILHVHPVK, peptide start residue: 408)”, the log2 fold change was found to be 0.0737.
